From article PMC2702278
These are yes or no findings as the source states them, for the method shown. In cells and extracts the contact can be indirect. Here binding means that the protein was enriched with, or labelled near, the bait; the list need not be complete.

Amino acid sequences for entries named in this document (tags omitted). A change or cut given only in a name is not applied to a line headed by its entry.
UniProt Q96B97: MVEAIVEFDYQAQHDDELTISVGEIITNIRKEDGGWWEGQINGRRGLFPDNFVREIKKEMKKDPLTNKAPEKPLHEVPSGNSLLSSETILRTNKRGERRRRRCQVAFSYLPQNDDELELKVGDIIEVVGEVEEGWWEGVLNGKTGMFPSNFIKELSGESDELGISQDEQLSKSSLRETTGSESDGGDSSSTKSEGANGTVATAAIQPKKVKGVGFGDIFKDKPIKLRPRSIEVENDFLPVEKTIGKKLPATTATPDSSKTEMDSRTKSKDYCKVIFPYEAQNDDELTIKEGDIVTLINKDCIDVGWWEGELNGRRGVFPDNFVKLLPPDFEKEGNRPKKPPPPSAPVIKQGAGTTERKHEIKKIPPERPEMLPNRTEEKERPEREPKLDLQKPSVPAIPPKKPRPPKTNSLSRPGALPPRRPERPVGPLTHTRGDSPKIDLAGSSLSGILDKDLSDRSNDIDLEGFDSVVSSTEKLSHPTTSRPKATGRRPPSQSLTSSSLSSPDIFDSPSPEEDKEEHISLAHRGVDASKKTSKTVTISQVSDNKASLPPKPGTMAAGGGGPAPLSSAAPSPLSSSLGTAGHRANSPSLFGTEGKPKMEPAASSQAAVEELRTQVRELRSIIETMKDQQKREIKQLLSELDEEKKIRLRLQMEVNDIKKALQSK
UniProt Q14244: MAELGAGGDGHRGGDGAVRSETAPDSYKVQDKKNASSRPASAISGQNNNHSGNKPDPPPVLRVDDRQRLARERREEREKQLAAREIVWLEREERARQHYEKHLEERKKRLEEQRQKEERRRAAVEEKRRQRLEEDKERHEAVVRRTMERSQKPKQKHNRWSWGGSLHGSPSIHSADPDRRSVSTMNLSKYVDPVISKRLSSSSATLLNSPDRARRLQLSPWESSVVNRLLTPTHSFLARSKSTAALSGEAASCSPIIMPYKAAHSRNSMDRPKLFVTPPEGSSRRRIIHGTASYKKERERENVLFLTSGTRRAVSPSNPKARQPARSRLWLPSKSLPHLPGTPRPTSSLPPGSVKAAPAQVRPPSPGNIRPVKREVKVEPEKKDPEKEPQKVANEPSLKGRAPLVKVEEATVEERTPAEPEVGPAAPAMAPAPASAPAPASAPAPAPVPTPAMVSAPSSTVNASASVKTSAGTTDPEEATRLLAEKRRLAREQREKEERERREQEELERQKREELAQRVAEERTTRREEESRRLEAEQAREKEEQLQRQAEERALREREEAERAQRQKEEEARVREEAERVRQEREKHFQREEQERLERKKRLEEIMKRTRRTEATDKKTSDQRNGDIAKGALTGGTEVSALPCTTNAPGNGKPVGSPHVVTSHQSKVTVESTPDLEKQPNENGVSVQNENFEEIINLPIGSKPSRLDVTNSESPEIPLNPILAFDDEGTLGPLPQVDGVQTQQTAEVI
UniProt Q86W92: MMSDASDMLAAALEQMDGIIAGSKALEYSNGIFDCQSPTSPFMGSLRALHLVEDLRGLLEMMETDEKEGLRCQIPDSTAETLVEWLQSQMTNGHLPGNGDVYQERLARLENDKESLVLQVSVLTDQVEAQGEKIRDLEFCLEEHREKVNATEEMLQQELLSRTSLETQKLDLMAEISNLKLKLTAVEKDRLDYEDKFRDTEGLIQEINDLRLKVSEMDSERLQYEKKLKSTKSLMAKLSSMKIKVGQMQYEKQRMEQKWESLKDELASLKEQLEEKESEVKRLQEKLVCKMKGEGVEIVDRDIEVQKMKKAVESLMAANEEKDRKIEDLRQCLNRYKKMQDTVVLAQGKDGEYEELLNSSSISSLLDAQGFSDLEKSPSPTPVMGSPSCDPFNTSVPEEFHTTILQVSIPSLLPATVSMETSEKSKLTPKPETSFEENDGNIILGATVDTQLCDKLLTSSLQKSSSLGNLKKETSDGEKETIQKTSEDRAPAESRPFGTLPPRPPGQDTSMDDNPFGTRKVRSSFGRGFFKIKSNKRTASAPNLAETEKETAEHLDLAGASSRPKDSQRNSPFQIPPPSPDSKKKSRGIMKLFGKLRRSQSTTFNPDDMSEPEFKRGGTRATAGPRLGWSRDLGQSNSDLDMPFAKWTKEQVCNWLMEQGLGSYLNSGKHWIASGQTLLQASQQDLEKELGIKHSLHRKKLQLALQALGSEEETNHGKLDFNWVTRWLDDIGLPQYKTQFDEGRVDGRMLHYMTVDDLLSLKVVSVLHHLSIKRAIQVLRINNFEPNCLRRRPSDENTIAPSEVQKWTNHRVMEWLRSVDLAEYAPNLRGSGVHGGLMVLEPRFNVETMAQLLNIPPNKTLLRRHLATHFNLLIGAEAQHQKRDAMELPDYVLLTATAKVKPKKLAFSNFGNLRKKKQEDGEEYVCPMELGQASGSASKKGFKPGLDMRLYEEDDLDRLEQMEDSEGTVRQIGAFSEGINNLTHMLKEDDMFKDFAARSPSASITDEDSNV
UniProt Q8NC56: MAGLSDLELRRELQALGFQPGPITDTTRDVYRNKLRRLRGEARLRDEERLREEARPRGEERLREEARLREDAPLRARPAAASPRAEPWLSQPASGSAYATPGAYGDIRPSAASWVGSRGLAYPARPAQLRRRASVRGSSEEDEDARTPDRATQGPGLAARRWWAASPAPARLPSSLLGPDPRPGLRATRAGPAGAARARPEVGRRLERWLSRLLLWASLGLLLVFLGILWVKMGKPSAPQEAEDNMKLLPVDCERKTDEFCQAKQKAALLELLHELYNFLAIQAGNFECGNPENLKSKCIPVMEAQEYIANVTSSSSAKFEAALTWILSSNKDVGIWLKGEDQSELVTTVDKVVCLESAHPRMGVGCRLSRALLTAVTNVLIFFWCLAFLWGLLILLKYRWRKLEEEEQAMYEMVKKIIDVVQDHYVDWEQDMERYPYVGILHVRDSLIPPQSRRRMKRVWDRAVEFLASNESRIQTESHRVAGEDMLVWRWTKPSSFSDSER

Experiments:
Assay in all cases: affinity purification with mass spectrometry; GST-fusion SH3 domain (about 10 μg on 40 μl Glutathione Sepharose 4B) incubated 4 h at 4°C with HeLa lysate pre-cleared on GST beads; 20 mM Tris pH 7.5, 150 mM NaCl, 5 mM EDTA, 5% glycerol, 0.5% Triton X-100 (washes 0.1%); SDS-PAGE, in-gel trypsin digestion, LC-MS/MS; hits also found with GST alone removed; only the target purified
[1] = target: GST-fusion SH3B domain of Ruk/CIN85 (UniProt Q96B97)
[2] = target: GST-fusion SH3C domain of Ruk/CIN85 (UniProt Q96B97)
[3] = target: GST-fusion SH3A domain of Ruk/CIN85 (UniProt Q96B97)

Molecule | binding [1] | binding [2] | binding [3]
E-MAP-115 (from UniProt Q14244 1-749) | binds | – | –
Liprin β1 (from UniProt Q86W92 1-1011) | binds | – | –
hLEM2 (from UniProt Q8NC56 1-503) | binds | – | –
KCTD10 (protein, UniProt Q9H3F6 1-313) MEEMSGESVVSSAVPAAATRTTSFKGTSPSSKYVKLNVGGALYYTTMQTLTKQDTMLKAMFSGRMEVLTDSEGWILIDRCGKHFGTILNYLRDGAVPLPESRREIEELLAEAKYYLVQGLVEECQAALQNKDTYEPFCKVPVITSSKEEQKLIATSNKPAVKLLYNRSNNKYSYTSNSDDNMLKNIELFDKLSLRFNGRVLFIKDVIGDEICCWSFYGQGRKIAEVCCTSIVYATEKKQTKVEFPEARIYEETLNILLYEAQDGRGPDNALLEATGGAAGRSHHLDEDEERERIERVRRIHIKRPDDRAHLHQ | binds | – | –
MCM5 (protein, UniProt P33992 1-734) MSGFDDPGIFYSDSFGGDAQADEGQARKSQLQRRFKEFLRQYRVGTDRTGFTFKYRDELKRHYNLGEYWIEVEMEDLASFDEDLADYLYKQPAEHLQLLEEAAKEVADEVTRPRPSGEEVLQDIQVMLKSDASPSSIRSLKSDMMSHLVKIPGIIIAASAVRAKATRISIQCRSCRNTLTNIAMRPGLEGYALPRKCNTDQAGRPKCPLDPYFIMPDKCKCVDFQTLKLQELPDAVPHGEMPRHMQLYCDRYLCDKVVPGNRVTIMGIYSIKKFGLTTSRGRDRVGVGIRSSYIRVLGIQVDTDGSGRSFAGAVSPQEEEEFRRLAALPNVYEVISKSIAPSIFGGTDMKKAIACLLFGGSRKRLPDGLTRRGDINLLMLGDPGTAKSQLLKFVEKCSPIGVYTSGKGSSAAGLTASVMRDPSSRNFIMEGGAMVLADGGVVCIDEFDKMREDDRVAIHEAMEQQTISIAKAGITTTLNSRCSVLAAANSVFGRWDETKGEDNIDFMPTILSRFDMIFIVKDEHNEERDVMLAKHVITLHVSALTQTQAVEGEIDLAKLKKFIAYCRVKCGPRLSAEAAEKLKNRYIIMRSGARQHERDSDRRSSIPITVRQLEAIVRIAEALSKMKLQPFATEADVEEALRLFQVSTLDAALSGTLSGVEGFTSQEDQEMLSRIEKQLKRRFAIGSQVSEHSIIKDFTKQKYPEHAIHKVLQLMLRRGEIQHRMQRKVLYRLK | binds | – | –
Dynamin 1 (protein, UniProt Q05193 1-864) MGNRGMEDLIPLVNRLQDAFSAIGQNADLDLPQIAVVGGQSAGKSSVLENFVGRDFLPRGSGIVTRRPLVLQLVNATTEYAEFLHCKGKKFTDFEEVRLEIEAETDRVTGTNKGISPVPINLRVYSPHVLNLTLVDLPGMTKVPVGDQPPDIEFQIRDMLMQFVTKENCLILAVSPANSDLANSDALKVAKEVDPQGQRTIGVITKLDLMDEGTDARDVLENKLLPLRRGYIGVVNRSQKDIDGKKDITAALAAERKFFLSHPSYRHLADRMGTPYLQKVLNQQLTNHIRDTLPGLRNKLQSQLLSIEKEVEEYKNFRPDDPARKTKALLQMVQQFAVDFEKRIEGSGDQIDTYELSGGARINRIFHERFPFELVKMEFDEKELRREISYAIKNIHGIRTGLFTPDMAFETIVKKQVKKIREPCLKCVDMVISELISTVRQCTKKLQQYPRLREEMERIVTTHIREREGRTKEQVMLLIDIELAYMNTNHEDFIGFANAQQRSNQMNKKKTSGNQDEILVIRKGWLTINNIGIMKGGSKEYWFVLTAENLSWYKDDEEKEKKYMLSVDNLKLRDVEKGFMSSKHIFALFNTEQRNVYKDYRQLELACETQEEVDSWKASFLRAGVYPERVGDKEKASETEENGSDSFMHSMDPQLERQVETIRNLVDSYMAIVNKTVRDLMPKTIMHLMINNTKEFIFSELLANLYSCGDQNTLMEESAEQAQRRDEMLRMYHALKEALSIIGDINTTTVSTPMPPPVDDSWLQVQSVPAGRRSPTSSPTPQRRAPAVPPARPGSRGPAPGPPPAGSALGGAPPVPSRPGASPDPFGPPPQVPSRPNRAPPGVPSRSGQASPSRPESPRPPFDL | – | binds | binds
WIRE (protein, UniProt Q8TF74 1-440) MPIPPPPPPPPGPPPPPTFHQANTEQPKLSRDEQRGRGALLQDICKGTKLKKVTNINDRSAPILEKPKGSSGGYGSGGAALQPKGGLFQGGVLKLRPVGAKDGSENLAGKPALQIPSSRAAAPRPPVSAASGRPQDDTDSSRASLPELPRMQRPSLPDLSRPNTTSSTGMKHSSSAPPPPPPGRRANAPPTPLPMHSSKAPAYNREKPLPPTPGQRLHPGREGPPAPPPVKPPPSPVNIRTGPSGQSLAPPPPPYRQPPGVPNGPSSPTNESAPELPQRHNSLHRKTPGPVRGLAPPPPTSASPSLLSNRPPPPARDPPSRGAAPPPPPPVIRNGARDAPPPPPPYRMHGSEPPSRGKPPPPPSRTPAGPPPPPPPPLRNGHRDSITTVRSFLDDFESKYSFHPVEDFPAPEEYKHFQRIYPSKTNRAARGAPPLPPILR | – | binds | binds
Synaptopodin (protein, UniProt Q8N3V7 1-929) MLGPHLPPPPLAPSEGRPTPCAFQIPDGSYRCLALEAEESSGEEGLQGEVGPTDLEEDEGVSRSGDDSACRVTQGTPQLPKALGIQPPSCSREEQGASQHDDRASQDWDVVKAGQMMTASPSPGPGPRVAQKPALGRSTSLTEKDLKEAKARSQQIAAQLTTPPSSNSRGVQLFNRRRQRVNEFTLESHGQRGQKPSQESLRVLPSSLPGHAPGLSLSSTSLPEPGPPRHPSPQSPDRGVPGHSMEGYSEEASLLRHLEKVASEEEEVPLVVYLKENAALLTANGLHLSQNREAQQSSPAPPPAEVHSPAADVNQNLASPSATLTTPTSNSSHNPPATDVNQNPPATVVPQSLPLSSIQQNSSEAQLPSNGTGPASKPSTLCADGQPQAPAEEVRCSTLLIDKVSTPATTTSTFSREATLIPSSRPPASDFMSSSLLIDIQPNTLVVSADQEMSGRAAATTPTKVYSEVHFTLAKPPSVVNRTARPFGIQAPGGTSQMERSPMLERRHFGEKAPAPQPPSLPDRSPRPQRHIMSRSPMVERRMMGQRSPASERRPLGNFTAPPTYTETLSTAPLASWVRSPPSYSVLYPSSDPKSSHLKGQAVPASKTGILEESMARRGSRKSMFTFVEKPKVTPNPDLLDLVQTADEKRRQRDQGEVGVEEEPFALGAEASNFQQEPAPRDRASPAAAEEVVPEWASCLKSPRIQAKPKPKPNQNLSEASGKGAELYARRQSRMEKYVIESSSHTPELARCPSPTMSLPSSWKYPTNAPGAFRVASRSPARTPPASLYHGYLPENGVLRPEPTKQPPYQLRPSLFVLSPIKEPAKVSPRAASPAKPSSLDLVPNLPKGALPPSPALPRPSRSSPGLYTSPGQDSLQPTAVSPPYGGDISPVSPSRAWSPRAKQAPRPSFSTRNAGIEAQVWKPSFCFK | – | binds | binds
Septin 2 (protein, UniProt Q15019 1-361) MSKQQPTQFINPETPGYVGFANLPNQVHRKSVKKGFEFTLMVVGESGLGKSTLINSLFLTDLYPERVIPGAAEKIERTVQIEASTVEIEERGVKLRLTVVDTPGYGDAINCRDCFKTIISYIDEQFERYLHDESGLNRRHIIDNRVHCCFYFISPFGHGLKPLDVAFMKAIHNKVNIVPVIAKADTLTLKERERLKKRILDEIEEHNIKIYHLPDAESDEDEDFKEQTRLLKASIPFSVVGSNQLIEAKGKKVRGRLYPWGVVEVENPEHNDFLKLRTMLITHMQDLQEVTQDLHYENFRSERLKRGGRKVENEDMNKDQILLEKEAELRRMQEMIARMQAQMQMQMQGGDGDGGALGHHV | – | binds | binds
